From article PMC6756068 come the findings set out here.

These are yes or no findings as the source states them, for the method shown. Binding seen in cells or lysates may run through a third protein. These calls come from enrichment with a bait or labelling near it, and not all partners need be listed.

The experiment has as its target BioID2-KRas4B (with an N-terminal OLLAS tag) (UniProt P01116). Description: proximity labelling; OLLAS-BioID2 constructs transfected into 293 cells, biotin (down to 0.1 µM), streptavidin pulldown, western blot. Background: In western blotting, separated proteins are transferred to a membrane and probed.

In the case of “endogenous merlin of 293 cells (from UniProt P35240 1-595)”, the binding result is “binds”.
